1 substance from doi:10.1101/2022.08.24.505075 can be followed below.

By UniProt entry, the sequences of proteins in these tests, tags left out.
UniProt Q969H0: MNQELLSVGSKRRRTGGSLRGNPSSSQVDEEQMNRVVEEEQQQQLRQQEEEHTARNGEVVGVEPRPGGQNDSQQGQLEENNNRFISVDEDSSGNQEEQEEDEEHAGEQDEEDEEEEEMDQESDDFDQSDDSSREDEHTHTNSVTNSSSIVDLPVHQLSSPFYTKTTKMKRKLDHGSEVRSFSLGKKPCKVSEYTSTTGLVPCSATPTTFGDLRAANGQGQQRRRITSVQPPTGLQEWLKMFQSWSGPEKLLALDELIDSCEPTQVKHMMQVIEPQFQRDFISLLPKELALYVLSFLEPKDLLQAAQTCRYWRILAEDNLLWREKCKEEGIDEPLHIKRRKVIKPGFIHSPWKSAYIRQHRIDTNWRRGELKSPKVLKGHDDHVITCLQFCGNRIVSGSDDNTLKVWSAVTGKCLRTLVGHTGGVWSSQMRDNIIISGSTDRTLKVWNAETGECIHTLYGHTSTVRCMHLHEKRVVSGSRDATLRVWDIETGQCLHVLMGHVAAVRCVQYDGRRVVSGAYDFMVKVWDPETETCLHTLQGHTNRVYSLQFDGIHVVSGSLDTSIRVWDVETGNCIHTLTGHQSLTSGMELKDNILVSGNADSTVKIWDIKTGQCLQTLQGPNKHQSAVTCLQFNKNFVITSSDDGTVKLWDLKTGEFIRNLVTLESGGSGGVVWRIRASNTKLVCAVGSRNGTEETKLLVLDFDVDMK
UniProt P01106: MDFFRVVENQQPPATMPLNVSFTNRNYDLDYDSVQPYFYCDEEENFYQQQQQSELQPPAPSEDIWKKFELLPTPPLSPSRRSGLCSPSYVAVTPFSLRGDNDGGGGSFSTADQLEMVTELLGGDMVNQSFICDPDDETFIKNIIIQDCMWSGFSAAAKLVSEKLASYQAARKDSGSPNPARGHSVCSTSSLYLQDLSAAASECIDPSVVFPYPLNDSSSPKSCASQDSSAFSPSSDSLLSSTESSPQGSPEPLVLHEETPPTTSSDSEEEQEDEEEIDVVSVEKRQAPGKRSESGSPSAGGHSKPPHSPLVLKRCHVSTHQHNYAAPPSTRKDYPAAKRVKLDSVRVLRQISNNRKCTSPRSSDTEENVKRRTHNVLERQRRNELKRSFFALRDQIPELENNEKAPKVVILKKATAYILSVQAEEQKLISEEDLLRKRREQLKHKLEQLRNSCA

No constants are given. Whether binding was seen depends on the method and setting. Binding seen in cells or lysates may run through a third protein. A yes stands for co-enrichment or nearness to the bait. Other partners may have been found.

In this experiment the target is Flag-tagged FBXW7α (human) (UniProt Q969H0). Put plainly: affinity purification with mass spectrometry.

For the substance c-Myc (from UniProt P01106 1-454), the binding result is recorded as “binds”.
